Reference: paper PMC9916724
No constants are given. Whether binding was seen depends on the method and setting. In cells and extracts the contact can be indirect. Some results given as binding are weak or reduced against the parent protein; the word gives no strength.

Amino acid sequences for entries named in this document (tags omitted). Residues count along the entry.
UniProt P11021, residues 19-654: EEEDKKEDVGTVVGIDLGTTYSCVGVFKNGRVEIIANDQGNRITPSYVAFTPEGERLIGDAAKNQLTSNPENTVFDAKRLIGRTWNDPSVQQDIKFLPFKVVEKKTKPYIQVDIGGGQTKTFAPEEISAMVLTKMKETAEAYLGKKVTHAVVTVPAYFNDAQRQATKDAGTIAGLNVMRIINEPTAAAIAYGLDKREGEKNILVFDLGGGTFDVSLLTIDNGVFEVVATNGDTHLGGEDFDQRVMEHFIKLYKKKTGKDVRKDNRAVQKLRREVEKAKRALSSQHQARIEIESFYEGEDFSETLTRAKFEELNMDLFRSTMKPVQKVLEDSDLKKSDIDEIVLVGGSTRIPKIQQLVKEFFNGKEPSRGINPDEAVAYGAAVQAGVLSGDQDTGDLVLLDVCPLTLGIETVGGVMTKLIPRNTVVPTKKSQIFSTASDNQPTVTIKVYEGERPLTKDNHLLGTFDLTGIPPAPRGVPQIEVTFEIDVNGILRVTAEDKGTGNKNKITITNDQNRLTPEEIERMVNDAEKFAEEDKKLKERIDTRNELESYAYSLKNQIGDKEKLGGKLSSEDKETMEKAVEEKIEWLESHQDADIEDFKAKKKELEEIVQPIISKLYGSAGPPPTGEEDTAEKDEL

Target: GRP78 (human (endogenous in cultured human podocytes)) (UniProt P11021)
Test: co-IP; human podocytes lysed in IP lysis buffer; immunoprecipitation with anti-GRP78 or anti-αvβ5 overnight at 4 °C, protein G-Sepharose beads 1 h at 4 °C; immunoblot with anti-ISM; basal conditions; negative control with unspecific antibody

binding: binds
B1: Isthmin-1 (ISM1) (protein, UniProt B1AKI9 30-464)
chain: ADGPDAAAGNASQAQLQNNLNVGSDTTSETSFSLSKEAPREHLDHQAAHQPFPRPRFRQETGHPSLQRDFPRSFLLDLPNFPDLSKADINGQNPNIQVTIEVVDGPDSEADKDQHPENKPSWSVPSPDWRAWWQRSLSLARANSGDQDYKYDSTSDDSNFLNPPRGWDHTAPGHRTFETKDQPEYDSTDGEGDWSLWSVCSVTCGNGNQKRTRSCGYACTATESRTCDRPNCPGIEDTFRTAATEVSLLAGSEEFNATKLFEVDTDSCERWMSCKSEFLKKYMHKVMNDLPSCPCSYPTEVAYSTADIFDRIKRKDFRWKDASGPKEKLEIYKPTARYCIRSMLSLESTTLAAQHCCYGDNMQLITRGKGAGTPNLISTEFSAELHYKVDVLPWIICKGDWSRYNEARPPNNGQKCTESPSDEDYIKQFQEAREY
